{"source": "PubChem BioAssay AID1508600", "about": "(Functional Genomics Laboratory (NCATS/FGL), 2020)", "note": "Among all 53,000 sequences or so, about 3,700 (7%) were called active.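 The calls were made as follows: active = gene knockdowns whose robust z-score for IL-1 alpha signal is at least 2 or at most -2, so actives lie on both sides; inactive = the rest.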 The list shows a part of the results.", "data": [{"experiment": "Components of the Cytosolic LPS Sensing Pathway: Gene Identification via Genome-wide siRNA Screen;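 also: robust z of the log signal after scaling to non-targeting control siRNA wells of the plate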", "conditions": "RAW264.7 macrophages, IL-1a HTRF, actives lie on both sides, screened at 100 nM (by protocol), cells primed 5 h with Pam3CSK4 first", "outline": "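Cells (RAW264.7, 1×10^4 per well) were transfected with siRNA at 100 nM and cultured 48h at 37 degrees C. Pam3CSK4 was added for 5 hours; LipidA transfection followed for 24 hour. IL-1a was then measured by HTRF.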", "values": [{"sequence": "GGAAGAGACACUUUGUCUATT against 4930519G04Rik", "z-score": "inactive: -0.389"}, {"sequence": "GGUCCAGAUAGACAUCCUGTT against Ralb", "z-score": "inactive: 0.169"}, {"sequence": "CCUAUAAAGCAGCAACUGCTT against Parm1", "z-score": "inactive: -0.924"}, {"sequence": "GCUUGUGGUAAAUGAGGAGTT against 1700024G13Rik", "z-score": "inactive: 1.4"}, {"sequence": "CGGGAUAGACUAUAAGACUTT against Rab40c", "z-score": "inactive: 0.612"}, {"sequence": "GGGCUAAAGCCUUCAACACTT against Olfr923", "z-score": "inactive: 0.315"}, {"sequence": "GGGAAUCUCUGUAUGUUGUTT against Letm1", "z-score": "inactive: 0.617"}, {"sequence": "GGAUGAUUCAUUCAGUGAUTT against Adcy9", "z-score": "inactive: 0.918"}, {"sequence": "GGAUAAGGUAGAAUUACUGTT against Slc26a4", "z-score": "active: 3.06"}, {"sequence": "CGACUAGAGUUGUGUGAUATT against Uqcrh", "z-score": "inactive: 0.834"}, {"sequence": "GGGACAGAUACAGUUCAUGTT against Zan", "z-score": "inactive: -0.114"}, {"sequence": "GUCAAGAAUAUUAUGACCCTT against Vamp8", "z-score": "inactive: 0.516"}, {"sequence": "GCAAUCACUCUGCAGUGUCTT against Olfr1042", "z-score": "inactive: -0.0202"}, {"sequence": "GCCCUUUUACGGCAACAGATT against C2cd5", "z-score": "inactive: -1.48"}, {"sequence": "GGAAAUGCCACCAAAGAACTT against Slc38a11", "z-score": "inactive: -0.168"}, {"sequence": "GCAAACAUACGAUGUGAGGTT against 1700019N19Rik", "z-score": "inactive: -1.92"}, {"sequence": "CCUUUCAUACCUUAGGUUATT against Slc25a44", "z-score": "inactive: -0.42"}, {"sequence": "GGCCUUAAAAGGAAAACUATT against Sftpd", "z-score": "inactive: 0.377"}, {"sequence": "GCUAAUAGUCAUUAAACUGTT against Zfp2", "z-score": "inactive: 1.76"}, {"sequence": "GGACAAGUACAGGUUCCUATT against Vrk3", "z-score": "inactive: 0.536"}, {"sequence": "GGAUUUCGACAGCAAACUCTT against Efhd2", "z-score": "inactive: 0.769"}, {"sequence": "GGUCACUAAAUCCUGUACATT against Vmn1r29", "z-score": "inactive: 0.226"}, {"sequence": "GGCGCACAUAUCUGAUCUUTT against Tmed3", "z-score": "inactive: 0.83"}, {"sequence": "CCAGUAUCACUGGAUCAUATT against Sec22c", "z-score": "inactive: -0.0645"}, {"sequence": "GGUUUGUGACCAAUAAAACTT against Elk3", "z-score": "inactive: -0.417"}, {"sequence": "GGCUUCCUCCACUCUUUCCTT against Rhbg", "z-score": "inactive: -1.81"}, {"sequence": "GGGUGACAACCAAAGACUGTT against Mill1", "z-score": "inactive: 0.174"}, {"sequence": "GAUUUACUCUGGACAUUUUTT against Hgsnat", "z-score": "inactive: -0.822"}, {"sequence": "GGAAAAUGUCCCACUUUUATT against Olfr70", "z-score": "inactive: -0.926"}, {"sequence": "GGAGCCCUUUCUACUGGUGTT against Snn", "z-score": "inactive: -0.404"}, {"sequence": "CCAGCUAGAAAAUCUCUCCTT against Cnn2", "z-score": "inactive: 0.0032"}, {"sequence": "GGACAACUCAGAUUGGACUTT against Adprhl2", "z-score": "inactive: -1.22"}, {"sequence": "GGUUGUGCUGUGAACAGAGTT against Atp23", "z-score": "inactive: -0.176"}, {"sequence": "GGAAUCUUGUUAGCUAUGGTT against Olfr615", "z-score": "inactive: 0.72"}, {"sequence": "GGGAUUCCUGGACAACAUUTT against Glce", "z-score": "inactive: 0.616"}, {"sequence": "GGUGGAUGAAGUAAACCAGTT against Chrna3", "z-score": "inactive: 1.42"}, {"sequence": "GGACCUGGAUCUAUCCUACTT against Lrfn1", "z-score": "inactive: -0.969"}, {"sequence": "GCCUGGAGACUACAUAUCCTT against Cdc20", "z-score": "active: -2.09"}, {"sequence": "GGAAGUUUUGAAACUUGUUTT against Gabrp", "z-score": "inactive: -0.258"}, {"sequence": "CCUUCCAGUAGACAUGGAATT against Zmym3", "z-score": "inactive: 1.13"}, {"sequence": "GCGAAUGUAGUGUAUUAUGTT against Prkd1", "z-score": "inactive: 0.259"}, {"sequence": "GGGCGUAAUUAAGAAGGAATT against Mapk10", "z-score": "inactive: 0.193"}, {"sequence": "GGAUGAAAAAGCUCACUUUTT against Srms", "z-score": "inactive: 1.09"}, {"sequence": "GCAAGUUGUCAAAUCUAAATT against Tspan13", "z-score": "inactive: 1.42"}, {"sequence": "GGUCAGAACAACGACAAGUTT against Tpcn1", "z-score": "inactive: -0.563"}, {"sequence": "GGACAUGAAGAUCAAGUCCTT against Rps2", "z-score": "inactive: -0.109"}, {"sequence": "GGCUUUUUCUACUUGUUCUTT against Olfr768", "z-score": "inactive: 1.44"}, {"sequence": "GGUGGAAGGCACUUUUAUUTT against Zmpste24", "z-score": "inactive: 0.172"}, {"sequence": "GCUCCUAUGCAAACAUUGCTT against Olfr1390", "z-score": "inactive: 0.489"}, {"sequence": "CCUCAAUGAGGUCCUGAUGTT against Olfr108", "z-score": "inactive: -0.408"}, {"sequence": "GGCAUGAAACCUCCAAAGCTT against 1520401A03Rik", "z-score": "inactive: 0.643"}, {"sequence": "GGACUUUAUCAAGGAGUAATT against Slc25a32", "z-score": "inactive: -1.56"}, {"sequence": "GCCUAUCUACGACCUCAUCTT against Kel", "z-score": "inactive: -0.768"}, {"sequence": "CCUGUCUUCUCUCUUGUAUTT against Zswim4", "z-score": "inactive: -1.95"}, {"sequence": "GCGAUGUGGACAGAAGUACTT against Cyba", "z-score": "inactive: 1.01"}, {"sequence": "GCCUCAUUAUAAAUCACACTT against Bclaf3", "z-score": "inactive: 0.752"}, {"sequence": "GGCACGAGUUUGACAGUGCTT against Tmem140", "z-score": "inactive: 0.494"}, {"sequence": "GGUGUCUCAUCAUGUUUCCTT against Ccl28", "z-score": "inactive: 1.13"}, {"sequence": "GGCACAGACUAAGGUAUAGTT against Adra2c", "z-score": "inactive: -1.51"}, {"sequence": "CGAAACGAGGAACUUUUAATT against Ccdc96", "z-score": "inactive: -1.83"}, {"sequence": "GGAAGUUGGUGAGCUGGUATT against Ccl17", "z-score": "active: 2.4"}, {"sequence": "GGGAGCAGCGAGAUGAAUUTT against Ano2", "z-score": "inactive: 0.126"}, {"sequence": "GGUGGAAGACAAGAGGAUATT against Sytl5", "z-score": "inactive: -0.474"}, {"sequence": "CGUACAAAUAUGAUUCGAATT against Ocrl", "z-score": "inactive: 1.83"}, {"sequence": "CGGACUUUUUUGGAUUUUCTT against Zbtb18", "z-score": "inactive: 1.11"}, {"sequence": "UCGAUAGCCUCAAUCAGCATT against Zfp58", "z-score": "inactive: -1.99"}, {"sequence": "CGUAGACCUUUUCCACUACTT against Plod1", "z-score": "inactive: 0.45"}, {"sequence": "GGGACAAGAUCUGAACUUCTT against Rgl3", "z-score": "inactive: -0.36"}]}]}
